# Laboratory results taken from article PMC11134550.
# Sequences of proteins named here, by UniProt entry; tags and fusion partners are left off. A change or cut given only in a name is not applied to a line headed by its entry. Residues count along the entry.
# UniProt P05556: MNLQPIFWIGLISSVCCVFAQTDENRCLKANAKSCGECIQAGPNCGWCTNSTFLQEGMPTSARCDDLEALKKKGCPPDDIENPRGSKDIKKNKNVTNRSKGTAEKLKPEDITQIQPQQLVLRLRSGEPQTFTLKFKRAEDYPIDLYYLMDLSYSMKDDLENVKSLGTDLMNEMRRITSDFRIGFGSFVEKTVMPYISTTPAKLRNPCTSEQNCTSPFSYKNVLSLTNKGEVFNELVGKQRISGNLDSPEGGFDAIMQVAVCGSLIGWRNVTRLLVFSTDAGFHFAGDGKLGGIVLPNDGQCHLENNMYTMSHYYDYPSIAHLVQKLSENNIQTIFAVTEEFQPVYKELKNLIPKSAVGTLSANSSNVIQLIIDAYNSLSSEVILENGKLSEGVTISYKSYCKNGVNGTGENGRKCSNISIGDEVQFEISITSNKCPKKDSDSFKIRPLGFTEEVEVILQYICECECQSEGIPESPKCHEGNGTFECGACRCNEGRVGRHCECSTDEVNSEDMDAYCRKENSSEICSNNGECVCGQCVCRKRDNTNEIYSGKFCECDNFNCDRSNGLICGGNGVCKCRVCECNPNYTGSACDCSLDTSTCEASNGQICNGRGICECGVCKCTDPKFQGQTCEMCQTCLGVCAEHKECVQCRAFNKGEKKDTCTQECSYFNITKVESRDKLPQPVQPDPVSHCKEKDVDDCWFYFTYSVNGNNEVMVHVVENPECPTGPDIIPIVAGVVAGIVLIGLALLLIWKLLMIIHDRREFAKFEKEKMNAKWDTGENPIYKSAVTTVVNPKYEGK
# UniProt P37173, residues 23-166: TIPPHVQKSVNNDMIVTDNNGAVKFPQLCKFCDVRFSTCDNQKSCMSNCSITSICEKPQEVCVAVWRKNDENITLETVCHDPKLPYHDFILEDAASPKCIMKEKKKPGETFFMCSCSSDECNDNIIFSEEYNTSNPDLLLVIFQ
# No constants are given. Whether binding was seen depends on the method and setting. For some of these results: In cells and extracts the contact can be indirect. Some binding calls cover weakened binding; strength is not graded here.
# Assays:
# [1] = molecular target: endogenous β1 integrin of human lung fibroblasts (human (endogenous in primary human lung fibroblasts)) (UniProt P05556); experiment: co-IP; Pierce Crosslink IP Kit; whole-cell lysates (650 μg) of untreated non-IPF human lung fibroblasts; IP with anti-β1 integrin (P5D2) and blot for galectin-3, or IP with anti-galectin-3 (EPR19244) and blot for β1 integrin; IgG isotype controls
# [2] = molecular target: endogenous β1 integrin of human lung fibroblasts (human (endogenous in primary human lung fibroblasts)) (UniProt P05556); experiment: proximity ligation; Duolink In Situ Red; fixed unpermeabilized human lung fibroblasts: IPF HLFs untreated or with 2 ng/ml TGF-β1 for 24 h, non-IPF HLFs with TGF-β1; anti-β1 integrin (mouse) and anti-galectin-3 (rabbit); signal means ≤40 nm
# [3] = molecular target: endogenous galectin-3 of human lung fibroblasts (human (endogenous in primary human lung fibroblasts)) (UniProt P17931); experiment: co-IP; Pierce Crosslink IP Kit; whole-cell lysates (650 μg) of untreated non-IPF human lung fibroblasts; IP with anti-β1 integrin (P5D2) and blot for galectin-3, or IP with anti-galectin-3 (EPR19244) and blot for β1 integrin; IgG isotype controls
# [4] = molecular target: extracellular domain of the recombinant human TGFβRII protein (glycosylated) (human) (UniProt P37173); experiment: SPR; solution competition: glycosylated integrin or TGFβRII immobilised on CM5; 625 nM galectin-3 injected with 2-fold serial dilutions of the small molecules GB0139 or GB1107 (1.5% DMSO), 30 μl/min, 20 °C; responses normalised to DMSO control; both purified
substance,measurement,setting,value
endogenous galectin-3 of human lung fibroblasts (from UniProt P17931 1-250),binding,[1],binds
same,binding,[2],binds
endogenous β1 integrin of human lung fibroblasts (from UniProt P05556 21-798) (receptor),binding,[3],binds
recombinant human galectin-3 (expressed and purified for SPR) (from UniProt P17931 1-250),binding,[4],binds
